Assay results as given in paper PMC10657444, “Design and evaluation of tadpole-like conformational antimicrobial peptides” (Communications Biology, 2023).
Several values for one entry are separate records, joined by “and”; a condition that tells them apart may be missing. Equal values may be shown once. The source gives many values for each of these; only a part stands here. Non-standard residues stand in square brackets, D forms with d. Residues, ends and D or L forms follow the SMILES beside them.

How the values were obtained:
MRSA USA 300 [1] = experiment: Membrane depolarization assay, DiSC3(5); assay type: cell-based, Staphylococcus aureus
Procedure: MRSA USA 300 and K. pneumoniae ATCC 700603 were inoculated into 5 mL of LB and shaken at 37°C and 225 rpm to OD600 ≈ 0.5 (i.e., mid-logarithmic phase). Bacteria were collected by centrifugation at 8000 rpm for 5 min, and washed twice with assay buffer (5 mM HEPES, 20 mM glucose, 10 mM KCl, pH 7.2). Bacteria were resuspended in the assay buffer to OD595 ≈ 0.1. DiSC3(5) was added to the cells at final concentration of 0.3 µM, wrapped with aluminum foil, and incubated at 37°C, until a stable fluorescence was observed. Two microliter of compound or DMSO were transferred into 96-well black walled polystyrene plates, to which was added 98 µL per well of the dye-saturated bacterial cells to initiate the reaction. The final concentration of HT2 and RI-HT2 were 1 ×, 2 ×, 4 × and 8 × MIC. Plates were immediately read on an Envison at λex = 622 nm/ λem = 670 nm with a kinetic program (reading every 1 min for 10 min) until the maximal intensity achieved was observed.

[2] = test system: K. pneumoniae ATCC 700603; experiment: Membrane permeability, SYTOX Green; assay type: cell-based, Klebsiella pneumoniae
Procedure: (§1) Fluorescent probe SYTOX^TM Green (Invitrogen/ Life Technologies, S7020) was used to analyze the effect of HT2 and RI-HT2 on membrane permeability of MRSA USA 300 and K. pneumoniae ATCC 700603 as described elsewhere. SYTOX^TM Green is a DNA binding dye that is fluorescent when bound to nucleic acids and only enters cells with compromised plasma membranes. MRSA USA 300 and K. pneumoniae ATCC 700603 were cultured in LB broth to mid log phase at 37 °C and washed with PBS and resuspended (OD595 ≈ 0.1) in the same buffer. SYTOX^TM Green was added into the cell suspension with a final concentration of 5 μM and being kept in dark for 20 min. 98 µL pre-treated cell suspension was transferred into wells of 96-well glass black plates. Then, 2 µL of compound or DMSO were added to initiate the reaction. The final concentrations of HT2 and RI-HT2 were 1 ×, 2 ×, 4 × and 8 × MIC. Fluorescence strength was measured with excitation/emission wavelength of 485/528 nm every 5 min for 60 min.

MRSA USA 300 [3] = experiment: Membrane permeability, SYTOX Green; assay type: cell-based, Staphylococcus aureus
Procedure: as §1

For `CC[C@@H](C)[C@@H](NC(=O)[C@@H](Cc1ccccc1)NC(=O)[C@@H](Cc1ccccc1)NC(=O)[C@@H](Cc1ccccc1)NC(=O)[C@H](N)Cc1ccccc1)C(=O)N[C@H](CCCNC(=N)N)C(=O)N[C@H](CCCNC(=N)N)C(=O)N[C@H](CC(C)C)C(=O)N[C@H](Cc1ccccc1)C(=O)N[C@H](CCCNC(=N)N)C(N)=O` [RI-HT2] (H-[dF][dF][dF][dF][dI][dR][dR][dL][dF][dR]-NH2; N-terminus assumed), the Fluorescence intensity (MRSA USA 300 [1]; 4 × MIC, time 10 min) was 483 and 441, the Fluorescence intensity (MRSA USA 300 [1]; 8 × MIC, time 0 min) was 535 and 554 and 539 and the Fluorescence intensity (MRSA USA 300 [1]; 8 × MIC, time 2 min) was 538 and 545 and 530. For the same compound, the Fluorescence intensity (MRSA USA 300 [1]; 8 × MIC, time 3 min) was 1230 and 1256, the Fluorescence intensity (MRSA USA 300 [1]; 8 × MIC, time 4 min) was 1300 and 1355 and 1369 and the Fluorescence intensity (MRSA USA 300 [1]; 8 × MIC, time 5 min) was 1673 and 1720 and 1652. The Fluorescence intensity (MRSA USA 300 [1]; 8 × MIC, time 6 min) was 1716 and 1691 and 1633, the Fluorescence intensity (MRSA USA 300 [1]; 8 × MIC, time 7 min) was 1735 and 1736 and 1641 and the Fluorescence intensity (MRSA USA 300 [1]; 8 × MIC, time 8 min) was 1678 and 1731 and 1675. For the same compound, the Fluorescence intensity (MRSA USA 300 [1]; 8 × MIC, time 9 min) was 1728 and 1707 and 1732, the Fluorescence intensity (MRSA USA 300 [1]; 8 × MIC, time 10 min) was 1700 and 1684 and 1743 and the Fluorescence intensity (MRSA USA 300 [1]; MIC, time 0 min) was 510 and 525 and 523. For the same compound, the Fluorescence intensity (MRSA USA 300 [1]; MIC, time 2 min) was 524 and 514 and 525, the Fluorescence intensity (MRSA USA 300 [1]; MIC, time 3 min) was 472 and 488 and 481 and the Fluorescence intensity (MRSA USA 300 [1]; MIC, time 4 min) was 477 and 488 and 491. For the same compound, the Fluorescence intensity (MRSA USA 300 [1]; MIC, time 5 min) was 476 and 492 and 484, the Fluorescence intensity (MRSA USA 300 [1]; MIC, time 6 min) was 493 and 482 and 491 and the Fluorescence intensity (MRSA USA 300 [1]; MIC, time 7 min) was 492 and 497 and 498. For the same compound, the Fluorescence intensity (MRSA USA 300 [1]; MIC, time 8 min) was 503 and 492 and 487, the Fluorescence intensity (MRSA USA 300 [1]; MIC, time 9 min) was 489 and 478 and the Fluorescence intensity (MRSA USA 300 [1]; MIC, time 10 min) was 493 and 502 and 482. For the same compound, the Fluorescence intensity ([2]; 2 × MIC, time 40 min) was 34702 and 33547 and 34912, the Fluorescence intensity ([2]; 2 × MIC, time 45 min) was 37136 and 36211 and 37338 and the Fluorescence intensity ([2]; 2 × MIC, time 50 min) was 39163 and 38232 and 39254. The Fluorescence intensity ([2]; 2 × MIC, time 55 min) was 40970 and 40291 and 41421, the Fluorescence intensity ([2]; 2 × MIC, time 60 min) was 42312 and 42003 and 42823 and the Fluorescence intensity ([2]; 4 × MIC, time 40 min) was 62682 and 62893 and 61497. The Fluorescence intensity ([2]; 4 × MIC, time 45 min) was 63382 and 64110 and 63070, the Fluorescence intensity ([2]; 4 × MIC, time 50 min) was 63978 and 63270 and 64577 and the Fluorescence intensity ([2]; 4 × MIC, time 55 min) was 64006 and 65215 and 63852. The Fluorescence intensity ([2]; 4 × MIC, time 60 min) was 64714 and 64385 and 66471, the Fluorescence intensity ([2]; 8 × MIC, time 40 min) was 66903 and 66727 and the Fluorescence intensity ([2]; 8 × MIC, time 45 min) was 68176 and 67638 and 67671. The Fluorescence intensity ([2]; 8 × MIC, time 50 min) was 68008 and 67714 and 67439, the Fluorescence intensity ([2]; 8 × MIC, time 55 min) was 68663 and 68065 and 68105 and the Fluorescence intensity ([2]; 8 × MIC, time 60 min) was 69269 and 68651 and 69113. For the same compound, the Fluorescence intensity ([2]; MIC, time 45 min) was 21004 and 21167 and 20800, the Fluorescence intensity ([2]; MIC, time 50 min) was 23259 and 23407 and 23194 and the Fluorescence intensity ([2]; MIC, time 55 min) was 25402 and 25608 and 25260. For the same compound, the Fluorescence intensity ([2]; MIC, time 60 min) was 27605 and 27457 and 27329, the Fluorescence intensity (MRSA USA 300 [3]; 2 × MIC, time 40 min) was 33952 and 34791 and 32993 and the Fluorescence intensity (MRSA USA 300 [3]; 2 × MIC, time 45 min) was 34234 and 35153 and 33304. For the same compound, the Fluorescence intensity (MRSA USA 300 [3]; 2 × MIC, time 50 min) was 34616 and 35530 and 33726, the Fluorescence intensity (MRSA USA 300 [3]; 2 × MIC, time 55 min) was 35021 and 36015 and 33983 and the Fluorescence intensity (MRSA USA 300 [3]; 2 × MIC, time 60 min) was 35210 and 36080 and 33852. The Fluorescence intensity (MRSA USA 300 [3]; 4 × MIC, time 40 min) was 61373 and 61097 and 62778, the Fluorescence intensity (MRSA USA 300 [3]; 4 × MIC, time 45 min) was 61952 and 61758 and 63164 and the Fluorescence intensity (MRSA USA 300 [3]; 4 × MIC, time 50 min) was 62152 and 62388 and 63395. The Fluorescence intensity (MRSA USA 300 [3]; 4 × MIC, time 55 min) was 62374 and 62948 and 63676, the Fluorescence intensity (MRSA USA 300 [3]; 4 × MIC, time 60 min) was 62761 and 62954 and 64070 and the Fluorescence intensity (MRSA USA 300 [3]; 8 × MIC, time 40 min) was 64561 and 64714. For the same compound, the Fluorescence intensity (MRSA USA 300 [3]; 8 × MIC, time 45 min) was 62984 and 64891 and 65072, the Fluorescence intensity (MRSA USA 300 [3]; 8 × MIC, time 50 min) was 63293 and 64293 and 63594 and the Fluorescence intensity (MRSA USA 300 [3]; 8 × MIC, time 55 min) was 63589 and 64553 and 65531. For the same compound, the Fluorescence intensity (MRSA USA 300 [3]; 8 × MIC, time 60 min) was 63666 and 65987 and 65753, the Fluorescence intensity (MRSA USA 300 [3]; MIC, time 45 min) was 17644 and 17567 and 16788 and the Fluorescence intensity (MRSA USA 300 [3]; MIC, time 50 min) was 17792 and 17686 and 16728. For the same compound, the Fluorescence intensity (MRSA USA 300 [3]; MIC, time 55 min) was 17738 and 17641 and 16766 and the Fluorescence intensity (MRSA USA 300 [3]; MIC, time 60 min) was 17754 and 17734 and 16661.
